{
  "source": "the supplement of paper PMC10338343",
  "note": "± gives the standard deviation. The list shows a part of the results, in another mix than the full data. Many of these values have a large error.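 Further: 1 nM active piRISC with 0.1 nM target library at 33 °C single turnover.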",
  "data": [
    {"system": "MIWI (PIWIL1) piRISC loaded with L1MC piRNA (30 nt)", "assay": "pre-steady-state target cleavage rate (min^-1); higher = faster piRNA-guided slicing of the target", "conditions": "guide: L1MC piRNA 5'p-UAACUAAAUACUAUGCAAGCUGUAGGUCCU; auxiliary factor: 500 nM mouse GTSF1", "procedure,_shortened": "(§1)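 The pre-steady-state cleavage rate was derived from a burst-and-steady-state fit of Cleave-'n-Seq data. For these assays, 1 nM active affinity-purified piRISC loaded with a single synthetic guide was mixed with […] a transcribed, DNA-blocked target RNA library in HEPES–potassium acetate buffer at 33 °C, with or without 500 nM GTSF1 partner protein, for 0–8 or 0–960 min. Sequencing counts of uncleaved targets were normalised to depth and to weakly complementary targets, and k3 was capped at 0.0001 min^-1 after three trials were pooled.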", "values": [
      {"sequence": "UCCUGGAUGUCGAACGUAAGUUUUUAGAUA", "pre-steady-state target cleavage rate": "0.00014 ± 0.029"},
      {"sequence": "UCCUGGAUGUCGAACCAUAGUAUUUUCUUA", "pre-steady-state target cleavage rate": "0.000202 ± 0.029"},
      {"sequence": "UGGACCUACAGCUUGCAUAUUAUUUAGUUA", "pre-steady-state target cleavage rate": "1.71 ± 0.12"},
      {"sequence": "UCCUGGAUGUCGAACCAUACUAUAUAGUUA", "pre-steady-state target cleavage rate": "0.000191 ± 0.029"}
    ]},
    {"system": "MIWI (PIWIL1) piRISC loaded with L1MC piRNA (30 nt)", "assay": "pre-steady-state target cleavage rate (min^-1); MIWI and MILI are mouse PIWI proteins and EfPiwi is from a freshwater sponge; tags in brackets are library labels; higher = faster piRNA-guided slicing of the target", "conditions": "guide: L1MC piRNA 5'p-UAACUAAAUACUAUGCAAGCUGUAGGUCCU; auxiliary factor: none (no GTSF1)", "procedure,_shortened": "as §1", "values": [
      {"sequence": "UCCUGGAUGUCGAACGAUAGUAAAUAGUUA", "pre-steady-state target cleavage rate": "0.000235 ± 0.016"},
      {"sequence": "UCCACCUUGUGCUUGCAUAGUAUUUUCAAA", "pre-steady-state target cleavage rate": "0.00149 ± 0.0022"},
      {"sequence": "ACCACCUACAGCUUGCAUAGUAUUUUCAAA", "pre-steady-state target cleavage rate": "0.00359 ± 0.0036"},
      {"sequence": "UCGACCUACAGCUUGCAUAGAUUUUACAAA", "pre-steady-state target cleavage rate": "0.000857 ± 0.0072"},
      {"sequence": "UGCUGCUACAGCUUGCAUAGUAUUUUCAAA", "pre-steady-state target cleavage rate": "0.00133 ± 0.004"},
      {"sequence": "AGGACCUACAGCUUGGUAAGUAUUUACAAA", "pre-steady-state target cleavage rate": "0.000196 ± 0.016"},
      {"sequence": "UCCACCUACAGCUUGCAUAGUAUUAUCAAA", "pre-steady-state target cleavage rate": "0.0012 ± 0.0072"},
      {"sequence": "UCGACCUACAGCUUGCAUACAUUUUUCAAA", "pre-steady-state target cleavage rate": "0.000353 ± 0.015"},
      {"sequence": "UCCUGGAUGUCGAACGUAACUAUUUAGAUA", "pre-steady-state target cleavage rate": "0.000251 ± 0.027"},
      {"sequence": "UCCUGGUACAGCUUGCAUACAUUUUAGUAA", "pre-steady-state target cleavage rate": "0.000273 ± 0.014"},
      {"sequence": "UGGACCUACAGCUUGCAUAGUAAUUAGAAA", "pre-steady-state target cleavage rate": "0.00241 ± 0.0035"},
      {"sequence": "UCCACCUACAGCUUGCAUAGUAUUAUGAAA", "pre-steady-state target cleavage rate": "0.0013 ± 0.0055"},
      {"sequence": "UCGACCUACACGAUGCAUAGUAUUUACAAA", "pre-steady-state target cleavage rate": "0.000817 ± 0.0096"},
      {"sequence": "UGGACCUACAGCUUGCUAUAGUAUUUAGUUA", "pre-steady-state target cleavage rate": "0.00123 ± 0.0042"},
      {"sequence": "UCCUGGAUGUCGAACGUUACUAAUUAGUUA", "pre-steady-state target cleavage rate": "0.000217 ± 0.027"},
      {"sequence": "UCGACCUACACGAUGCAUAGUAUUUAGAAA", "pre-steady-state target cleavage rate": "0.000323 ± 0.01"},
      {"sequence": "UCGACCUACAGCUUGCUAUGUAUUUAGAAA", "pre-steady-state target cleavage rate": "0.000546 ± 0.0086"},
      {"sequence": "UCCACCUACAGCUUGCAUAGAUUUUAGUAA", "pre-steady-state target cleavage rate": "0.00144 ± 0.0034"},
      {"sequence": "UGGACCUACAGCUUGGUAAGUAUUUAGUUA", "pre-steady-state target cleavage rate": "0.000569 ± 0.0049"},
      {"sequence": "UCCACCUACAGCUUGCAUUCAAUUUACAAA", "pre-steady-state target cleavage rate": "0.000568 ± 0.013"},
      {"sequence": "UGGACCUACAGCUACGAUAGUAUUUAGUAA", "pre-steady-state target cleavage rate": "0.000522 ± 0.0079"},
      {"sequence": "AGGACCUACAGCUUGCAAUCAUAAAUCAAA [g14:g30:cont:t1A]", "pre-steady-state target cleavage rate": "0.000459 ± 0.018"},
      {"sequence": "UCCACCUAGUGCUUGCAUAGUAUUUAGAAA", "pre-steady-state target cleavage rate": "0.00172 ± 0.0019"},
      {"sequence": "UCCUGGAUGUCGAACGAUAGUAUUUAGUAA", "pre-steady-state target cleavage rate": "0.000133 ± 0.036"},
      {"sequence": "UCCACCUACAGCUUCCAUAGUAAUUAGUUA", "pre-steady-state target cleavage rate": "0.00127 ± 0.006"},
      {"sequence": "UCCUGGAUGUCGAACGUAUGCAUUUAGUUA", "pre-steady-state target cleavage rate": "0.000369 ± 0.011"},
      {"sequence": "UCCUGGAUGUCGAACCAUAGUAUCUAGUUA", "pre-steady-state target cleavage rate": "0.000227 ± 0.021"},
      {"sequence": "UCGACCUACAGCUUGCAUUCAAUUUUCAAA", "pre-steady-state target cleavage rate": "0.000654 ± 0.013"},
      {"sequence": "UCCACCUACACCUUGCAUAGUAUUUUCAAA", "pre-steady-state target cleavage rate": "0.00208 ± 0.0022"},
      {"sequence": "UCCACCUACAGCUUCCAUAGUAUUUAGUUA", "pre-steady-state target cleavage rate": "0.00286 ± 0.003"},
      {"sequence": "AGGACCUACAGCUUGCAUACAAUUUACAAA", "pre-steady-state target cleavage rate": "0.00113 ± 0.0076"},
      {"sequence": "UGGACCUACAGCUUGGUAAGUAUUUACAAA", "pre-steady-state target cleavage rate": "0.000469 ± 0.011"},
      {"sequence": "UCGACCUACAGCAACCAUAGUAUUUAGAAA", "pre-steady-state target cleavage rate": "0.000266 ± 0.012"},
      {"sequence": "AGGACCUACAGCUACGAUAGUAUUUAGUUA", "pre-steady-state target cleavage rate": "0.00108 ± 0.0049"},
      {"sequence": "UCCUGGAUGUCCUUGCAAAGUUUUUAGUUA", "pre-steady-state target cleavage rate": "0.00192 ± 0.0037"},
      {"sequence": "AGGACCUACAGCUUGCAUAGUAAAAUCAAA", "pre-steady-state target cleavage rate": "0.000912 ± 0.0089"}
    ]}
  ]
}
